Measured data: PubChem BioAssay AID743121 (NCATS, 2013)
Purpose: 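Knock-downs that sensitise breast cancer cells to camptothecin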 (primary screen). Cells: MDA-MB-231 cells, a human breast cancer line. Reagents: single siRNA against human genes, 20 nM siRNA (0.8 pmol per well). Duration: 120 h (drug added 48 h after transfection, read 72 h later). Treatment: camptothecin 20 nM (about EC30) for 72 h; vehicle 0.1% DMSO in parallel plates. Detection: 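CellTiter-Glo ATP signal, scaled to control siRNA as percent viability; sensitisation given as log2 of untreated divided by camptothecin-treated viability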. Direction: log2 vehicle/camptothecin viability: higher = stronger sensitisation to camptothecin. Active means: 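Active genes have an RSA gene-level p-value below 0.001, computed from the ratios of their separate siRNAs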.
The whole screen tested about 26,000 reagents; below is a part drawn at random. Of all reagents, 167 (0.63%) got an active call. 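Calls are per gene from RSA p-values that are not deposited; an individual active-marked siRNA can sensitise only weakly.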 A number with no mark means an inactive call. The numbers tell different reagents against one gene apart. Further read-outs or replicates are left out here.

Knock-down of LRP5 #1 resulted in: log2 vehicle/camptothecin viability -0.185.
With knock-down of LRP5 #2 the results were log2 vehicle/camptothecin viability 0.378.
Depletion of LRP5 #3 came out at: log2 vehicle/camptothecin viability -0.0625.
LRP5 #4 showed log2 vehicle/camptothecin viability 0.209.
TRIM16L #1 gave log2 vehicle/camptothecin viability -0.0529.
Depletion of TRIM16L #2 gave: log2 vehicle/camptothecin viability 0.312.
Against TRIM16L #3, the values are log2 vehicle/camptothecin viability 0.0248.
After knock-down of UCHL5 #1 the results were log2 vehicle/camptothecin viability 0.17.
After knock-down of UCHL5 #2, the screen gave log2 vehicle/camptothecin viability -0.259.
UCHL5 #3 gave log2 vehicle/camptothecin viability -0.108.
UCHL5 #4 scored log2 vehicle/camptothecin viability 0.39.
With knock-down of KCNH8 #1, the screen gave log2 vehicle/camptothecin viability -0.277.
Depletion of KCNH8 #2 came out at: log2 vehicle/camptothecin viability -0.279.
KCNH8 #3 showed log2 vehicle/camptothecin viability -0.257.
After knock-down of KCNH8 #4 the results were log2 vehicle/camptothecin viability -0.15.
VAT1 #1 showed log2 vehicle/camptothecin viability -0.0997.
VAT1 #2 showed log2 vehicle/camptothecin viability -0.342.
For VAT1 #3, the entry reads log2 vehicle/camptothecin viability 0.504.
VAT1 #4 gave log2 vehicle/camptothecin viability -0.0725.
Against ASB6 #1 the deposit lists log2 vehicle/camptothecin viability 0.558.
For ASB6 #2 the deposit lists log2 vehicle/camptothecin viability 0.0313.
Silencing of ASB6 #3 came out at: log2 vehicle/camptothecin viability 0.0899.
With knock-down of ASB6 #4, the record shows log2 vehicle/camptothecin viability 0.459.
After knock-down of DOP1A #1 the results were log2 vehicle/camptothecin viability 0.00793.
After knock-down of DOP1A #2, the record shows log2 vehicle/camptothecin viability 0.00453.
With knock-down of DOP1A #3, the record shows log2 vehicle/camptothecin viability -0.176.
Against DOP1A #4, the values are log2 vehicle/camptothecin viability 0.0153.

In a second layout: results already given
target gene	siRNA no.	log2 vehicle/camptothecin viability
VAT1	4	-0.0725
ASB6	1	0.558
ASB6	2	0.0313
